PubChem BioAssay AID652243 | Drosophila RNAi Screening Center, 2013

Purpose: 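Fly regulators of androgen-dependent reporter output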 (primary screen)
Cells: Drosophila S2R+ cells
Reagent: long dsRNA against Drosophila genes
Timing: 72 h (48 h, then 24 h hormone)
Conditions: synthetic androgen R1881 at 10 nM for 24 h
Detection: 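Firefly light from an androgen-responsive reporter and Renilla control light per well, raw and unnormalised, for each of two replicates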
Direction: firefly reporter light: higher = more light from androgen-responsive reporter; Renilla control light: higher = more constitutive control signal (cell number, transfection)
Active means: 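Hit when the log firefly-to-Renilla ratio dropped or increased by a fixed fold versus the mean of GFP or LacZ controls across duplicate plates; lowering cut given as 1.5 and as 3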
Calls: active = hit: reporter lowered or raised; inactive = no hit
In all, the deposit lists about 24,000 reagents; shown is an unselected part of those with a known target gene and a result. Of all reagents, 246 (1%) got an active call. 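Plates not normalised; calls are printed but the firefly/Renilla ratio behind them is not deposited; fold cut for lowering reported inconsistently.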 The raw values are shown without normalisation. Entries without a mark were called inactive. Not given: the amount of reagent.

After knock-down of Mks1 [DRSC19697], the record shows firefly reporter light, replicate 1 = 5.72e5; firefly reporter light, replicate 2 = 4.02e5; Renilla control light, replicate 1 = 3.43e6; Renilla control light, replicate 2 = 3.07e6.
After knock-down of TpnC25D [DRSC02965] the results were firefly reporter light, replicate 1 = 60571; firefly reporter light, replicate 2 = 59112; Renilla control light, replicate 1 = 9.15e5; Renilla control light, replicate 2 = 8.14e5.
For TpnC25D [DRSC24524], the entry reads firefly reporter light, replicate 1 = 1.50e5; firefly reporter light, replicate 2 = 1.75e5; Renilla control light, replicate 1 = 5.54e5; Renilla control light, replicate 2 = 3.71e5.
Against CG44251 [DRSC06856] the deposit lists firefly reporter light, replicate 1 = 3.42e5; firefly reporter light, replicate 2 = 2.12e5; Renilla control light, replicate 1 = 1.62e6; Renilla control light, replicate 2 = 1.16e6.
With knock-down of CG44251 [DRSC24631], the screen gave firefly reporter light, replicate 1 = 6.27e5; firefly reporter light, replicate 2 = 1.06e6; Renilla control light, replicate 1 = 7.79e5; Renilla control light, replicate 2 = 1.02e6.
Against Ilp7 [DRSC17895] the deposit lists firefly reporter light, replicate 1 = 3.90e5; firefly reporter light, replicate 2 = 4.01e5; Renilla control light, replicate 1 = 4.42e6; Renilla control light, replicate 2 = 4.49e6.
Depletion of Yp1 [DRSC18731] resulted in: firefly reporter light, replicate 1 = 2.34e5; firefly reporter light, replicate 2 = 3.53e5; Renilla control light, replicate 1 = 1.74e6; Renilla control light, replicate 2 = 2.40e6.
Against Yp1 [DRSC27876], the values are firefly reporter light, replicate 1 = 5.56e5; firefly reporter light, replicate 2 = 3.22e5; Renilla control light, replicate 1 = 3.56e6; Renilla control light, replicate 2 = 2.05e6.
Depletion of Ir48a [DRSC05301] came out at: firefly reporter light, replicate 1 = 1.97e5; firefly reporter light, replicate 2 = 1.67e5; Renilla control light, replicate 1 = 3.75e5; Renilla control light, replicate 2 = 3.81e5.
Against Pus10 [DRSC00629], the values are firefly reporter light, replicate 1 = 1.09e6; firefly reporter light, replicate 2 = 9.76e5; Renilla control light, replicate 1 = 3.25e6; Renilla control light, replicate 2 = 1.70e6.
AANATL4 [DRSC06774] gave firefly reporter light, replicate 1 = 25310; firefly reporter light, replicate 2 = 72858; Renilla control light, replicate 1 = 6.30e5; Renilla control light, replicate 2 = 7.93e5.
For CG32115 [DRSC22607], the entry reads firefly reporter light, replicate 1 = 8.86e5; firefly reporter light, replicate 2 = 1.03e6; Renilla control light, replicate 1 = 1.43e6; Renilla control light, replicate 2 = 1.74e6.
Dip-B [DRSC16466] showed firefly reporter light, replicate 1 = 1.08e5; firefly reporter light, replicate 2 = 93494; Renilla control light, replicate 1 = 9.54e5; Renilla control light, replicate 2 = 9.42e5.
Dip-B [DRSC25975] gave firefly reporter light, replicate 1 = 4.23e5; firefly reporter light, replicate 2 = 3.72e5; Renilla control light, replicate 1 = 8.17e5; Renilla control light, replicate 2 = 6.81e5.

Records listed so far whose target name begins with T or t:
TpnC25D [DRSC02965]: firefly reporter light, replicate 1 = 60571; firefly reporter light, replicate 2 = 59112; Renilla control light, replicate 1 = 9.15e5; Renilla control light, replicate 2 = 8.14e5
TpnC25D [DRSC24524]: firefly reporter light, replicate 1 = 1.50e5; firefly reporter light, replicate 2 = 1.75e5; Renilla control light, replicate 1 = 5.54e5; Renilla control light, replicate 2 = 3.71e5
